PubChem BioAssay AID1224829, NIAID, 2016

Test: 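Genes needed for LPS-driven NF-kappaB p65 nuclear entry in mouse macrophages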 (follow-up of hits)
Cells: mouse RAW264.7 G9 macrophage reporter cells
Knock-down reagent: single siRNA against mouse genes, 100 nM
Duration: 2 days of siRNA knock-down, then 40 min of LPS before fixing
Treatment: LPS (Salmonella minnesota R595) at 10 ng/ml
Measurement: 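Imaging of GFP-p65 after 40 min of LPS; nuclear over perinuclear ring intensity ratio, scaled to plate median and non-targeting control wells, given as z-score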
Scale: p65 translocation z-score: higher = more nuclear NF-kappaB p65 after LPS
Hit rule: 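Active means the replicate-mean z-score lies beyond plus or minus 2, in either direction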
Calls: active = changed p65 translocation (either direction); inactive = no clear change
The whole screen tested about 3,800 reagents; below is a random part of them. 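Calls cover raised and lowered translocation; gene median uses one vendor's three siRNAs; qiagen siRNAs acted more weakly than ambion siRNAs.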 The numbers tell different reagents against one gene apart. Further read-outs or replicates are left out here.

What did the screen give for Chchd1 (coiled-coil-helix-coiled-coil-helix domain containing 1) #1, siRNA vendor or control pool ambion single siRNA?
p65 translocation z-score, replicate mean: -0.0188; p65 translocation z-score, replicate 1: -0.0304; Call: inactive

For Chchd1 (coiled-coil-helix-coiled-coil-helix domain containing 1) #2, siRNA vendor or control pool ambion single siRNA, what was measured?
p65 translocation z-score, replicate mean: -0.877; p65 translocation z-score, replicate 1: -1.59; Call: inactive

For Chchd1 (coiled-coil-helix-coiled-coil-helix domain containing 1) #3, siRNA vendor or control pool ambion single siRNA, what was measured?
p65 translocation z-score, replicate mean: 1.5; p65 translocation z-score, replicate 1: 0.741; Call: inactive

What did the screen give for Chchd1 (coiled-coil-helix-coiled-coil-helix domain containing 1) #4, siRNA vendor or control pool qiagen single siRNA?
p65 translocation z-score, replicate mean: 2.92; p65 translocation z-score, replicate 1: 2.56; Call: active

What did the screen give for Chchd1 (coiled-coil-helix-coiled-coil-helix domain containing 1) #5, siRNA vendor or control pool qiagen single siRNA?
p65 translocation z-score, replicate mean: 2.2; p65 translocation z-score, replicate 1: 0.57; Call: active

What did the screen give for Chchd1 (coiled-coil-helix-coiled-coil-helix domain containing 1) #6, siRNA vendor or control pool qiagen single siRNA?
p65 translocation z-score, replicate mean: -0.57; p65 translocation z-score, replicate 1: -0.105; Call: inactive

Active calls, of those listed so far:
Chchd1 (coiled-coil-helix-coiled-coil-helix domain containing 1) #4, siRNA vendor or control pool qiagen single siRNA: p65 translocation z-score, replicate mean = 2.92; p65 translocation z-score, replicate 1 = 2.56; Call = active
Chchd1 (coiled-coil-helix-coiled-coil-helix domain containing 1) #5, siRNA vendor or control pool qiagen single siRNA: p65 translocation z-score, replicate mean = 2.2; p65 translocation z-score, replicate 1 = 0.57; Call = active

Continued.
With Dennd1c (DENN domain containing 1C) #1, siRNA vendor or control pool ambion single siRNA, how do the results read?
p65 translocation z-score, replicate mean: -5.41; p65 translocation z-score, replicate 1: -6.88; Call: active

With Dennd1c (DENN domain containing 1C) #2, siRNA vendor or control pool ambion single siRNA, what was measured?
p65 translocation z-score, replicate mean: -1.93; p65 translocation z-score, replicate 1: -1.64; Call: inactive

How did the screen score Dennd1c (DENN domain containing 1C) #3, siRNA vendor or control pool ambion single siRNA?
p65 translocation z-score, replicate mean: -2.29; p65 translocation z-score, replicate 1: -2.43; Call: active

For Dennd1c (DENN domain containing 1C) #4, siRNA vendor or control pool qiagen single siRNA, how do the results read?
p65 translocation z-score, replicate mean: 0.454; p65 translocation z-score, replicate 1: -0.691; Call: inactive

For Dennd1c (DENN domain containing 1C) #5, siRNA vendor or control pool qiagen single siRNA, what does the deposit list?
p65 translocation z-score, replicate mean: -0.994; p65 translocation z-score, replicate 1: -2.6; Call: inactive

Which result is listed for Dennd1c (DENN domain containing 1C) #6, siRNA vendor or control pool qiagen single siRNA?
p65 translocation z-score, replicate mean: -1.13; p65 translocation z-score, replicate 1: -1.11; Call: inactive
